Results on seven compounds are retold here after PubChem BioAssay AID328 (DTP/NCI, 2004).

The list shows only some results of the screen, not a fair sample: it gathers some chemical classes. Not every dose and run of a compound is shown. T/C gives the treated animals as a percentage of the vehicle group. Some entries give survivors of the animals treated and no T/C: the source files T/C as zero there, which appears to mark a toxic dose or a test without result, not a measured value. Some survivor counts are full or nearly so, which does not show that the dose was tolerated: the source hardly ever lists a survival T/C far under the control, and the zero likely stands for such cases as well. Counts of survivors are from the toxicity check (mostly the fifth day) where no day follows; animals may have died later. Schedule codes are those of the source, taken here to give the interval after Q, in days (D) or hours (H), and the number of doses after X. For survival time, this PubChem deposit counts one and a half times the control or more as active, and values a quarter to a half above the control carry no call in these data; other NCI protocols may use other cut-offs. Some entries show no survivor count and are marked so; the dose need not have been tolerated. Some T/C values carry the count of animals alive at the toxicity check (mostly the fifth day); without a count or a note in brackets, all were alive then.

This assay concerns BDF1 mice, P388 leukemia ip, median survival T/C. As to the kind of experiment: NCI In Vivo Anticancer Drug Screen. Data for tumor model P388 Leukemia (intraperitoneal) in B6D2F1 (BDF1) mice. The conditions noted are these: T/C endpoint: median survival time, higher T/C = longer survival. In short, it runs like this: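 In tumour-bearing mice, survival after compound treatment is set against the vehicle group and given as a quotient.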

For the compound `O=C(O)COc1cccc(CN(CCCl)CCCl)c1`, the T/C runs as follows: (dose: 0.4 mg/kg/injection, schedule: Q04DX003 (ip), vehicle: saline) 130 % of control; (dose: 0.6 mg/kg/injection, schedule: Q04DX003 (ip), vehicle: saline) 170 % of control; (dose: 0.9 mg/kg/injection, schedule: Q04DX003 (ip), vehicle: saline) 180 % of control; (dose: 625.0 micrograms/kg/injection, schedule: Q04DX003 (ip), vehicle: saline with Tween-80) 159 % of control; (dose: 1250.0 micrograms/kg/injection, schedule: Q04DX003 (ip), vehicle: saline with Tween-80) 118 % of control. The survivor count (dose: 2500.0 micrograms/kg/injection, schedule: Q04DX003 (ip), vehicle: saline with Tween-80) is 5 of 6.

Regarding `Cc1c([N+](=O)[O-])cc([N+](=O)[O-])c(-c2c([N+](=O)[O-])cc([N+](=O)[O-])c(C)c2[N+](=O)[O-])c1[N+](=O)[O-]`, the T/C was 103 % of control [survivor count not shown] (dose: 100.0 mg/kg/injection, schedule: Q01DX009 (ip), vehicle: gum acacia); 96 % of control [survivor count not shown] (dose: 100.0 mg/kg/injection, schedule: Q04DX003 (ip), vehicle: gum acacia); 100 % of control [survivor count not shown] (dose: 200.0 mg/kg/injection, schedule: Q01DX009 (ip), vehicle: gum acacia); 100 % of control [survivor count not shown] (dose: 200.0 mg/kg/injection, schedule: Q04DX003 (ip), vehicle: gum acacia); 107 % of control [survivor count not shown] (dose: 400.0 mg/kg/injection, schedule: Q01DX009 (ip), vehicle: gum acacia); 96 % of control [survivor count not shown] (dose: 400.0 mg/kg/injection, schedule: Q04DX003 (ip), vehicle: gum acacia).

For `O=P(NCCCO)(OCCCl)N(CCCl)CCCl` (stereo unspecified), the T/C runs as follows: (dose: 100.0 mg/kg/injection, schedule: Q04DX003 (ip), vehicle: saline sonified) 100 % of control [5 of 6 alive]; (dose: 200.0 mg/kg/injection, schedule: Q04DX003 (ip), vehicle: saline sonified) 100 % of control; (dose: 264.0 mg/kg/injection, schedule: Q04DX003 (ip), vehicle: saline) 109 % of control; (dose: 400.0 mg/kg/injection, schedule: Q04DX003 (ip), vehicle: saline sonified) 118 % of control; (dose: 400.0 mg/kg/injection, schedule: Q04DX003 (ip), vehicle: saline) 140 % of control.

Take `CN(c1ccc(/C=C/c2ccccc2)cc1)P(=O)(Cl)Cl`: the T/C (dose: 12.5 mg/kg/injection, schedule: Q01DX009 (ip), vehicle: saline with Tween-80) is 115 % of control; the T/C (dose: 25.0 mg/kg/injection, schedule: Q01DX009 (ip), vehicle: saline with Tween-80) was 113 % of control; the T/C (dose: 50.0 mg/kg/injection, schedule: Q01DX009 (ip), vehicle: saline with Tween-80, evaluated on day 30) is 106 % of control; the T/C (dose: 50.0 mg/kg/injection, schedule: Q01DX009 (ip), vehicle: saline with Tween-80, evaluated on day 35) is 109 % of control. In addition, the survivor count (dose: 100.0 mg/kg/injection, schedule: Q01DX009 (ip), vehicle: saline with Tween-80) is recorded as 6 of 6 and the survivor count (dose: 200.0 mg/kg/injection, schedule: Q01DX009 (ip), vehicle: saline with Tween-80) is reported as 0 of 6.

On to `O=P(Cl)(Nc1ccccc1)Nc1ccccc1`, for which the T/C (dose: 100.0 mg/kg/injection, schedule: Q04DX003 (ip), vehicle: saline with Tween-80) is 100 % of control; the T/C (dose: 200.0 mg/kg/injection, schedule: Q04DX003 (ip), vehicle: saline with Tween-80) was 122 % of control; the T/C (dose: 400.0 mg/kg/injection, schedule: Q04DX003 (ip), vehicle: saline with Tween-80) was 100 % of control.

As to `CN(CCCl)CCCCCCCl`, the T/C is 150 % of control (dose: 2.5 mg/kg/injection, schedule: Q01DX009 (ip), vehicle: saline); 165 % of control (dose: 5.0 mg/kg/injection, schedule: Q01DX009 (ip), vehicle: saline); 217 % of control (dose: 10.0 mg/kg/injection, schedule: Q01DX009 (ip), vehicle: saline); 220 % of control (dose: 20.0 mg/kg/injection, schedule: Q01DX009 (ip), vehicle: saline).

With `O=C(O)c1c([N+](=O)[O-])cc([N+](=O)[O-])c(-c2c([N+](=O)[O-])cc([N+](=O)[O-])c(C(=O)O)c2[N+](=O)[O-])c1[N+](=O)[O-].O=C1CC2OCC=C3CN4CCC56c7ccccc7N1C5C2C3CC46`, the T/C runs as follows: (dose: 0.78 mg/kg/injection, schedule: Q01DX009 (ip), vehicle: Klucel (hydroxypropylcellulose) (HPC)) 104 % of control [survivor count not shown]; (dose: 1.56 mg/kg/injection, schedule: Q01DX009 (ip), vehicle: Klucel (hydroxypropylcellulose) (HPC)) 100 % of control [survivor count not shown]; (dose: 3.12 mg/kg/injection, schedule: Q01DX009 (ip), vehicle: Klucel (hydroxypropylcellulose) (HPC)) 104 % of control [survivor count not shown]; (dose: 4.5 mg/kg/injection, schedule: Q04DX003 (ip), vehicle: Klucel (hydroxypropylcellulose) (HPC)) 110 % of control [survivor count not shown]; (dose: 6.25 mg/kg/injection, schedule: Q01DX009 (ip), vehicle: Klucel (hydroxypropylcellulose) (HPC)) 100 % of control [survivor count not shown]; (dose: 9.0 mg/kg/injection, schedule: Q04DX003 (ip), vehicle: Klucel (hydroxypropylcellulose) (HPC)) 110 % of control [survivor count not shown].
